Reference: the supplement of paper PMC12067093, “Discovery and optimisation of a covalent ligand for TRIM25 and its application to targeted protein ubiquitination” (Chemical Science, 2025)
Some of the results follow.

Amino acid sequences for entries named in this document (tags omitted). A change or cut given only in a name is not applied to a line headed by its entry.
UniProt O94973, whole entry, looked up: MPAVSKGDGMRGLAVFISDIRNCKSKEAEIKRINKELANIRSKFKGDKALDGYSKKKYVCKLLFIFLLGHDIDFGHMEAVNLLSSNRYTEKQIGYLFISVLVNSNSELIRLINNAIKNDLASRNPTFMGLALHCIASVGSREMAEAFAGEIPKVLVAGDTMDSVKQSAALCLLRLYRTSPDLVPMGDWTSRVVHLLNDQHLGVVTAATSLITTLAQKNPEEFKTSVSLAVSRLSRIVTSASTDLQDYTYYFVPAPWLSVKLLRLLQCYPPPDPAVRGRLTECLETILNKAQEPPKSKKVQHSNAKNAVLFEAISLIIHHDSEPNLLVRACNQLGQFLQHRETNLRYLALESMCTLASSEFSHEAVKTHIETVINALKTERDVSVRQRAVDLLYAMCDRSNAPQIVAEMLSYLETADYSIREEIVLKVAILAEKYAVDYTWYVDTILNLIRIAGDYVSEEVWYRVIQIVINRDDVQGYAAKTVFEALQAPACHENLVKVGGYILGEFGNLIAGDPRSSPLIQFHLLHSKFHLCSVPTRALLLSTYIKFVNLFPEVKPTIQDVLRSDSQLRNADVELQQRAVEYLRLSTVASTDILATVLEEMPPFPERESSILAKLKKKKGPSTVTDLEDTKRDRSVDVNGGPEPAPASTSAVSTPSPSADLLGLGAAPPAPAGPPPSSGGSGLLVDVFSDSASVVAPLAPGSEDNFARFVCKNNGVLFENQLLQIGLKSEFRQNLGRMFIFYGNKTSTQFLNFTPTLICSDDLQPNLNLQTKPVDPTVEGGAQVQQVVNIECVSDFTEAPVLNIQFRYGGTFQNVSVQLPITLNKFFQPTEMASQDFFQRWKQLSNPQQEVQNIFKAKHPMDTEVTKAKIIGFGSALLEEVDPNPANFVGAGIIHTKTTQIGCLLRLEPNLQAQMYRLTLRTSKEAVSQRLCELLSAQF
UniProt Q86XL3: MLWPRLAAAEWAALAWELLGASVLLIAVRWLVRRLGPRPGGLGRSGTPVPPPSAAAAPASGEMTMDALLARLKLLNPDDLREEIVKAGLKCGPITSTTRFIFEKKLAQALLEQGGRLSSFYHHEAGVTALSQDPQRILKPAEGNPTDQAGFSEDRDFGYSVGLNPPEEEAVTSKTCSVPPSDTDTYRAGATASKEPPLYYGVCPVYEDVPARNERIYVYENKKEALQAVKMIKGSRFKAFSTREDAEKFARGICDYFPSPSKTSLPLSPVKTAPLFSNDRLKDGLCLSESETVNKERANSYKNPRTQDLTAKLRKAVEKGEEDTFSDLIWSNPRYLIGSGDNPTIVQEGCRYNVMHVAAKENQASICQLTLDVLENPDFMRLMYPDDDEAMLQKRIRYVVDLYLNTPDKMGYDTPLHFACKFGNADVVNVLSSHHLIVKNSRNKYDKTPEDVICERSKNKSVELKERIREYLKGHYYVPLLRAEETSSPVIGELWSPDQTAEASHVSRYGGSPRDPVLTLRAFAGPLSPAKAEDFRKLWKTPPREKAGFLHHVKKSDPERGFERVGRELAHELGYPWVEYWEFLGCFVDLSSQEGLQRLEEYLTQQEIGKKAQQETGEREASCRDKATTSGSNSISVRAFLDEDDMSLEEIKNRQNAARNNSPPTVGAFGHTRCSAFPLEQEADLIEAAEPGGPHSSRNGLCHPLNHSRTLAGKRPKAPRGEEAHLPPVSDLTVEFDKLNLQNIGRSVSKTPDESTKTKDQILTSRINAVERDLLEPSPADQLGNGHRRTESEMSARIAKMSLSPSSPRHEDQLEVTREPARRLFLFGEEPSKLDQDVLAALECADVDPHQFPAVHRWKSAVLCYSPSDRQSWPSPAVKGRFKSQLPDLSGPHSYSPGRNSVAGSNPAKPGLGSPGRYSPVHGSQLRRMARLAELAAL
UniProt O00189: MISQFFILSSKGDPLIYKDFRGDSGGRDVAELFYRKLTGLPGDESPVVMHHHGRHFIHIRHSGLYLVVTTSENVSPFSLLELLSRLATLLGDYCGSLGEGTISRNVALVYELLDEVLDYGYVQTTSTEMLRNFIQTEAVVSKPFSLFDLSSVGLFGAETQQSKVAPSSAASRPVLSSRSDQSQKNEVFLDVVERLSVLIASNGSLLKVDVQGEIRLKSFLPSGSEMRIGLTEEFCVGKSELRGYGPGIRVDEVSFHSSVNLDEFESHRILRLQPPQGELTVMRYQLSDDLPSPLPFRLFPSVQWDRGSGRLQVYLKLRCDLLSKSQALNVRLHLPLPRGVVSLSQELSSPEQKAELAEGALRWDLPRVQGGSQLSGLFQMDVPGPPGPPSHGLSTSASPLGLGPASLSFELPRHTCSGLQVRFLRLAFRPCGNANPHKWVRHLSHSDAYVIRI
UniProt Q7Z5R6: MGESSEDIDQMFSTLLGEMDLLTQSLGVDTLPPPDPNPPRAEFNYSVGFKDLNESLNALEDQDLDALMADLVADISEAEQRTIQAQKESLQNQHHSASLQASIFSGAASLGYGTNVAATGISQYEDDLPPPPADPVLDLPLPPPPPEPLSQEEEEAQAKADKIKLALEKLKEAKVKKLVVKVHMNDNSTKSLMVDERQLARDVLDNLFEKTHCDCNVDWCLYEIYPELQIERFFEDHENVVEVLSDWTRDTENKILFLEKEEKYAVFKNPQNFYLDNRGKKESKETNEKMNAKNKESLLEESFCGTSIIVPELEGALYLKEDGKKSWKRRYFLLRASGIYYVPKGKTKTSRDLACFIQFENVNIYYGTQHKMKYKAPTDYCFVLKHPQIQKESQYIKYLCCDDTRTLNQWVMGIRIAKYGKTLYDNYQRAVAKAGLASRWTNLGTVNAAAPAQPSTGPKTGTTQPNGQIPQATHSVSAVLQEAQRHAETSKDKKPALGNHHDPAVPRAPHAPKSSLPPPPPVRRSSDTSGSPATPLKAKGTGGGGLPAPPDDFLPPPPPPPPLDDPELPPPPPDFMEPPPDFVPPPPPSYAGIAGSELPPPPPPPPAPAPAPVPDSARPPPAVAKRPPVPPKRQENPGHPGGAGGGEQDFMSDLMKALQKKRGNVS
UniProt O14727: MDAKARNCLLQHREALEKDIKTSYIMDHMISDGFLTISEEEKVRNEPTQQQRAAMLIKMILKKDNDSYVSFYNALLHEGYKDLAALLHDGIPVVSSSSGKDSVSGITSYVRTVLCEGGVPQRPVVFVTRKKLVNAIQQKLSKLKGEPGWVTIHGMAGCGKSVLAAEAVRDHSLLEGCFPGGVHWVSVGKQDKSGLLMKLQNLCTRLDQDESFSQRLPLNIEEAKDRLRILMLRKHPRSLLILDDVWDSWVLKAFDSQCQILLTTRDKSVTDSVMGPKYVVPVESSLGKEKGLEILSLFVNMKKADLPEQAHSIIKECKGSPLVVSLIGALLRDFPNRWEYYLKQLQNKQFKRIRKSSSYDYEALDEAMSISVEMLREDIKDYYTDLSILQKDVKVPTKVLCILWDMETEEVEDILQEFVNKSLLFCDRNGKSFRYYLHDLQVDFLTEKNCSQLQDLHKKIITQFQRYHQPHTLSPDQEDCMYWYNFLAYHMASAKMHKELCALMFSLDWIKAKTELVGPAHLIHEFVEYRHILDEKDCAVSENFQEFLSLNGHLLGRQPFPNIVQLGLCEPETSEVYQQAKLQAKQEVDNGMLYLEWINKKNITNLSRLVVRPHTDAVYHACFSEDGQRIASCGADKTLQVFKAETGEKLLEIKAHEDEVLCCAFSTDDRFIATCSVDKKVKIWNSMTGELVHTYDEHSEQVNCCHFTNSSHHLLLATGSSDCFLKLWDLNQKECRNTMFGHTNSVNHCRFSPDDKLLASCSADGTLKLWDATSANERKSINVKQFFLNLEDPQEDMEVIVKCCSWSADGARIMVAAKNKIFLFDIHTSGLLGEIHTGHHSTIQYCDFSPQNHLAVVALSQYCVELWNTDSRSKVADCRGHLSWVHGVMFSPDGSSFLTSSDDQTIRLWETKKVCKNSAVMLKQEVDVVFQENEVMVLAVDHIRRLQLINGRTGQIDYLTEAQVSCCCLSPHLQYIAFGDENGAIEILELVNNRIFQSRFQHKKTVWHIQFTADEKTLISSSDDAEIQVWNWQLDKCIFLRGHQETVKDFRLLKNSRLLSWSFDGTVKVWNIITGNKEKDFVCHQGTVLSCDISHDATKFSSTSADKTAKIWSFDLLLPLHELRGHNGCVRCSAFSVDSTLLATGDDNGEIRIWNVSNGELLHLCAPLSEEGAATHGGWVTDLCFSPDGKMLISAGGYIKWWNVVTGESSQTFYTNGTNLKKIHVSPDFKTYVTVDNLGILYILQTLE
UniProt O43747: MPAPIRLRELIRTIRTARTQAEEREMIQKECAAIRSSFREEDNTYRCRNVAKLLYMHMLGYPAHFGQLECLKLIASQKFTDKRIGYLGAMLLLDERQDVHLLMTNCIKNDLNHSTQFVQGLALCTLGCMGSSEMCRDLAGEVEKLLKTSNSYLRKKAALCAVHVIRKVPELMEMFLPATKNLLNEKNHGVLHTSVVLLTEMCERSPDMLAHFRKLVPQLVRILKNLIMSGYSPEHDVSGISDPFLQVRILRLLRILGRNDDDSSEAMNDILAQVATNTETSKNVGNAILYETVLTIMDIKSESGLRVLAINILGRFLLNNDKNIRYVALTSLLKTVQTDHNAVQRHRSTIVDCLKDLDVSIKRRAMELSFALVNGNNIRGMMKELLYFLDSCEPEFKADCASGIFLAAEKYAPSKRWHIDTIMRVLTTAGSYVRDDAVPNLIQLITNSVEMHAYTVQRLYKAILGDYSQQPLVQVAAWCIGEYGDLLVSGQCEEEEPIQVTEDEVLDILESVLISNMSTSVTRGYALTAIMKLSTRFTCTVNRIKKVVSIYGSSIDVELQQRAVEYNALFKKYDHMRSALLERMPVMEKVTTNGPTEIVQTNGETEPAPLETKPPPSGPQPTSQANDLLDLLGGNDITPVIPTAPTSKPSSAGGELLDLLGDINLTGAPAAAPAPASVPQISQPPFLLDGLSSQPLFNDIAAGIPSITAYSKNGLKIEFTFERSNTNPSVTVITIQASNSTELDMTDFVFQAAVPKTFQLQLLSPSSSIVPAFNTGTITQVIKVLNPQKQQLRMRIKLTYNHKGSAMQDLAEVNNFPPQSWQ
UniProt P20073: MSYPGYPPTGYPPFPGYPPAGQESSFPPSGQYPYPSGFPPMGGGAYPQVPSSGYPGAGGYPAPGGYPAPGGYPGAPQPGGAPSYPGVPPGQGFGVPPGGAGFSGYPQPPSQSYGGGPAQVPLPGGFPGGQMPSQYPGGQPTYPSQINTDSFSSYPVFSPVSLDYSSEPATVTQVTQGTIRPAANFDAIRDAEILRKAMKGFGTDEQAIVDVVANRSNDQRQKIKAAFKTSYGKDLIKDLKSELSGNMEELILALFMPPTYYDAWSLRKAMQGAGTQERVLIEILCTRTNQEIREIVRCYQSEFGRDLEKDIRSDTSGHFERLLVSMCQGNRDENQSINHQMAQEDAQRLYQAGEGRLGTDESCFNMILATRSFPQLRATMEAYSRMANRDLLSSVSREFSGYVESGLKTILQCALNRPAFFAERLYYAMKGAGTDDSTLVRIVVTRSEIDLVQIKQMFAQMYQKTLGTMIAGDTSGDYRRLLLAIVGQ
UniProt Q9HDC9: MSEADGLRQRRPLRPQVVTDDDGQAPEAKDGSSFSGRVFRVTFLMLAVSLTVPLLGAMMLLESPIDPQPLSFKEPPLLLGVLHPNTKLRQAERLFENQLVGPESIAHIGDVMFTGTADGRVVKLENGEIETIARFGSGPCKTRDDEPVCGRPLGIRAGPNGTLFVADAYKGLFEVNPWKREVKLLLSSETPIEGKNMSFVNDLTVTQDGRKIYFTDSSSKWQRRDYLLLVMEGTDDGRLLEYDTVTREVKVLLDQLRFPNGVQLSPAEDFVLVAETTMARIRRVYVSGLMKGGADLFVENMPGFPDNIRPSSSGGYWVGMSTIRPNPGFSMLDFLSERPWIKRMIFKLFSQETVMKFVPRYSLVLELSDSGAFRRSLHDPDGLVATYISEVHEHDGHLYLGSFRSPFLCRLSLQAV
UniProt P27695, whole entry, looked up: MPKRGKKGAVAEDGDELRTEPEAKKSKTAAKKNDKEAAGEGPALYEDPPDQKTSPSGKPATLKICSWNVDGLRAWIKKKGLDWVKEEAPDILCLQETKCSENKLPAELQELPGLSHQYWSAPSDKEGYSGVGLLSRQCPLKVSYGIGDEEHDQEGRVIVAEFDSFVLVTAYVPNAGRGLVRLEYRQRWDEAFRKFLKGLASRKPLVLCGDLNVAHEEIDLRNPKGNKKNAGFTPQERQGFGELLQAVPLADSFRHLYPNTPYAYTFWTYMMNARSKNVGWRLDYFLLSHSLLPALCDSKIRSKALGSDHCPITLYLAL

Compound: CC1Cc2ccccc2N1C(=O)C1CCCN(C1)C(=O)CCl (mixture of isomers) [TRIM25 ligand 11 (diastereomer mixture)]
Assay: probe-labelled cysteine peptide fold change vs DMSO (competition) (log2 fold change); higher = less target engagement (more negative = stronger competition)
Details: THP-1, incubation time: 4 h
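Note: competitive chemoproteomic profiling in live THP-1 cells with an iodoacetamide desthiobiotin (IA-DTB) probe, comparing probe-labelled peptide intensities in compound-treated cells against DMSO-treated controls.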

Target	probe-labelled cysteine peptide fold change (10 µM)	probe-labelled cysteine peptide fold change (50 µM)
AP2A2_O94973_491_TVFEALQAPACHENLVK (UniProt O94973)	0.247	-0.157
ANKLE2_Q86XL3_844_LDQDVLAALECADVDPHQFPAVHR (UniProt Q86XL3)	0.0361	-0.0206
AP4M1_O00189_235_IGLTEEFCVGK (UniProt O00189)	-0.0152	-0.0323
APBB1IP_Q7Z5R6_401_YLCCDDTR (UniProt Q7Z5R6)	-0.0505	-0.0813
APAF1_O14727_426_SLLFCDR (UniProt O14727)	0.0723	0.0805
AP1G1_O43747_392_ELLYFLDSCEPEFK (UniProt O43747)	0.249	0.283
AP2A1_O95782_215_VVHLLNDQHMGVVTAAVSLITCLCK (UniProt O95782)	-0.114	0.0617
ANKLE2_Q86XL3_367_ENQASICQLTLDVLENPDFMR (UniProt Q86XL3)	0.0789	0.189
ANXA7_P20073_363_LGTDESCFNMILATR (UniProt P20073)	0.041	0.0488
APBB1IP_Q7Z5R6_355_DLACFIQFENVNIYYGTQHK (UniProt Q7Z5R6)	0.0789	0.136
ANKFY1_Q9P2R3_712+716_HGCDATCWGPGPGGCLQTLLHR (UniProt Q9P2R3)	-0.131	-0.202
APMAP_Q9HDC9_149_DDEPVCGR (UniProt Q9HDC9)	0.107	0.138
ANKRD52_Q8NB46_1001_NGLASVVQALLSHGATVLAVDEEGHTPALACAPNK (UniProt Q8NB46)	-0.105	-0.371
APEX1_P27695_65_ICSWNVDGLR (UniProt P27695)	-0.0619	0.0189

Part of the list above, bar-delimited.
Target | probe-labelled cysteine peptide fold change (10 µM) | probe-labelled cysteine peptide fold change (50 µM)
ANXA7_P20073_363_LGTDESCFNMILATR (UniProt P20073) | 0.041 | 0.0488
APBB1IP_Q7Z5R6_355_DLACFIQFENVNIYYGTQHK (UniProt Q7Z5R6) | 0.0789 | 0.136
